Laboratory results published in patent US20230286955A1, “INHIBITORS OF THEM1” (Cornell University, priority 2022, published 2023).
The structures given here were assigned with low confidence; some may be wrong.

Sequences of proteins named here, by UniProt entry; tags and fusion partners are left off. A change or cut given only in a name is not applied to a line headed by its entry. Residues count along the entry.
UniProt Q8WYK0, whole entry: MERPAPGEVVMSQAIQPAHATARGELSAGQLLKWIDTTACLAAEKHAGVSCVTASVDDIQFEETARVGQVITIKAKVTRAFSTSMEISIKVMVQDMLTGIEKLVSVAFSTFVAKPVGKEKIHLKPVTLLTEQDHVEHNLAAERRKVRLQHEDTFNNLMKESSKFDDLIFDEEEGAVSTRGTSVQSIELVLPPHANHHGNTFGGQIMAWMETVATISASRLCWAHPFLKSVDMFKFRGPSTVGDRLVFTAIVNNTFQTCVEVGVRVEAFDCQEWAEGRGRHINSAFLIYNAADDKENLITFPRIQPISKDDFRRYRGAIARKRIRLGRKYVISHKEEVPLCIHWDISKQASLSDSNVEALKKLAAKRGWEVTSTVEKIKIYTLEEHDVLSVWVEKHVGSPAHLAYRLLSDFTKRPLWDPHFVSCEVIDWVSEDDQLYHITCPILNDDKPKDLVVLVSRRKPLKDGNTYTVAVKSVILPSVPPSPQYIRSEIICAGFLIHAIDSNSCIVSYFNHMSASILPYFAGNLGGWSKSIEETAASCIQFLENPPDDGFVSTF
UniProt Q8WXI4, 14-594 isoform 2 limits assumed: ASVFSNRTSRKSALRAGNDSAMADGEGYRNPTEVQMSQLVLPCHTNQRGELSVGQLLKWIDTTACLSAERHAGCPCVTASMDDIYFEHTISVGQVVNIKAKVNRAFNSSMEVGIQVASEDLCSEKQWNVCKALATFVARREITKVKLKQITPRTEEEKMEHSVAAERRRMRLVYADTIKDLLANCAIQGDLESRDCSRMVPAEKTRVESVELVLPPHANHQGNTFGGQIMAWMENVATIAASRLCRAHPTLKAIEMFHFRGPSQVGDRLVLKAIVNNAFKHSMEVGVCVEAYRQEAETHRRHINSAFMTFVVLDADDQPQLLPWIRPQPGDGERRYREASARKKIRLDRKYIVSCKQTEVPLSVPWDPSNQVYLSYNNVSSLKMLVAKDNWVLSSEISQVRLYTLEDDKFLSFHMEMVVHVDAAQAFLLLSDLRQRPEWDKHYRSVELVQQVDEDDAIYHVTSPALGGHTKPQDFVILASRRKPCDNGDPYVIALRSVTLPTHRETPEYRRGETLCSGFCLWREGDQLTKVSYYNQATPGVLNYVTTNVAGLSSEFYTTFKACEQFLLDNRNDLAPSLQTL
UniProt Q8WXI4, 339-594 isoform 2 limits assumed: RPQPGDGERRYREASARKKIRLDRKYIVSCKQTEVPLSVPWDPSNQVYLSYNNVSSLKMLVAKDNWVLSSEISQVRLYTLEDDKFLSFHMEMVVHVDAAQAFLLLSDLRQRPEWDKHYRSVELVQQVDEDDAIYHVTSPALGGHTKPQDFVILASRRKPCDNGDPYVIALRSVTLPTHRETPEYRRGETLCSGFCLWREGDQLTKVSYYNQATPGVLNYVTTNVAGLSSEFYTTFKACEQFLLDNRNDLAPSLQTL
UniProt Q8WXI4, 43-329 limits assumed, stated change not applied: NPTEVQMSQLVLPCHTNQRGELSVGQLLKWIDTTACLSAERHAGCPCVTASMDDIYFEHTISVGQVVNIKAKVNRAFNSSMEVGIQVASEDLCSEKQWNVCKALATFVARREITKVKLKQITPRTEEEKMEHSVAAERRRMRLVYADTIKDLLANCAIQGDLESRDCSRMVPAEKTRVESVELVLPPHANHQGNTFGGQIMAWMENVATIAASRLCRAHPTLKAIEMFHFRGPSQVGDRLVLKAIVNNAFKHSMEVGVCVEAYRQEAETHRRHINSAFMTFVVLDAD

Columns and labels:
[1] = tested on: primary brown adipocytes cultured from A-Them1Tg mice; assay: Oxygen consumption rates (OCR) in primary brown adipocytes; conditions: compounds at their in vitro IC50 concentrations, 30 min, NE 1 μM; vs wild type (DMSO)
full-length human Acot12 = full-length human Acot12 (Homo sapiens, UniProt Q8WYK0); conditions: read-out: Kd, Acot12; MST, 100 nM labeled protein, 22° C.
full-length Them1 = full-length Them1 (Homo sapiens, UniProt Q8WXI4); assay: Microscale thermophoresis binding, full-length Them1; conditions: for Kd: read-out: Kd, Them1, MST, 100 nM labeled His-tagged protein, 22° C., mean (s.e.m.)
Them1-ΔSTART = Them1-ΔSTART (Homo sapiens, UniProt Q8WXI4); assay: Microscale thermophoresis binding, Them1-ΔSTART; conditions: for Kd: read-out: Kd, Thioesterase domains (Them1-ΔSTART ), MST, 100 nM labeled protein, 22° C.
Them1 START domain = Them1 START domain (Homo sapiens, UniProt Q8WXI4); assay: Microscale thermophoresis binding, START domain; conditions: for Kd: read-out: Kd, START, MST, 100 nM labeled protein, 22° C., mean (s.e.m.)
recombinant human Them1 = recombinant human Them1 (Homo sapiens, UniProt Q8WXI4); assay: Acot activity assay (fluorometric, C14-CoA), inhibition of Them1; conditions: mean with s.e.m., triplicate determinations
[2] = Critical aggregation concentration by dynamic light scattering; conditions: PBS, 22° C.

| Structure (SMILES) | OCR in A-Them1Tg brown adipocytes, reversal of Them1 suppression [1] | Kd (full-length human Acot12) | Kd / binding affinity to full-length Them1 compared to the parent U1 compound (full-length Them1; in words) | Kd (full-length Them1) | binding to Them1-ΔSTART (Them1-ΔSTART; in words) | Kd (Them1-ΔSTART) | binding affinity to the START domain compared to the parent U1 compound (Them1 START domain; in words) | Kd (Them1 START domain) | IC50 (recombinant human Them1) | critical aggregation concentration [2] |
| --- | --- | --- | --- | --- | --- | --- | --- | --- | --- | --- |
| CCOC(=O)N1CCN(C(c2cccs2)c2c(C)n(C)c3ccccc23)CC1 (stereo not drawn) | remained suppressed | > 125 µM | tighter | 3.39 µM | did not bind | > 125 µM | tighter | 4.12 µM | 8.49 µM |  |
| CCOC(=O)N1CCN(C(c2cccs2)c2c(CC)[nH]c3ccccc23)CC1 (stereo not drawn) | remained suppressed | > 125 µM |  | 1.05 µM |  | > 125 µM |  | 3.56 µM |  | 122 µM |
